Reference: PubChem BioAssay AID2073 (Sanford-Burnham Center for Chemical Genomics, 2009)
Screen size: about 290,000 compounds; about 570 (0.2%) were called active. Inconclusive means that the source gave no clear call. Such entries were picked first, then a sample of the others. Cut-off read from the data, not from the text of the source: active = inhibition mostly above about 51% (no sharp cut-off); inconclusive = no clear call, values can overlap the other calls; inactive = mostly below about 53%.

Sequences of proteins named here, by UniProt entry; tags and fusion partners are left off.
UniProt Q00975, whole entry, looked up: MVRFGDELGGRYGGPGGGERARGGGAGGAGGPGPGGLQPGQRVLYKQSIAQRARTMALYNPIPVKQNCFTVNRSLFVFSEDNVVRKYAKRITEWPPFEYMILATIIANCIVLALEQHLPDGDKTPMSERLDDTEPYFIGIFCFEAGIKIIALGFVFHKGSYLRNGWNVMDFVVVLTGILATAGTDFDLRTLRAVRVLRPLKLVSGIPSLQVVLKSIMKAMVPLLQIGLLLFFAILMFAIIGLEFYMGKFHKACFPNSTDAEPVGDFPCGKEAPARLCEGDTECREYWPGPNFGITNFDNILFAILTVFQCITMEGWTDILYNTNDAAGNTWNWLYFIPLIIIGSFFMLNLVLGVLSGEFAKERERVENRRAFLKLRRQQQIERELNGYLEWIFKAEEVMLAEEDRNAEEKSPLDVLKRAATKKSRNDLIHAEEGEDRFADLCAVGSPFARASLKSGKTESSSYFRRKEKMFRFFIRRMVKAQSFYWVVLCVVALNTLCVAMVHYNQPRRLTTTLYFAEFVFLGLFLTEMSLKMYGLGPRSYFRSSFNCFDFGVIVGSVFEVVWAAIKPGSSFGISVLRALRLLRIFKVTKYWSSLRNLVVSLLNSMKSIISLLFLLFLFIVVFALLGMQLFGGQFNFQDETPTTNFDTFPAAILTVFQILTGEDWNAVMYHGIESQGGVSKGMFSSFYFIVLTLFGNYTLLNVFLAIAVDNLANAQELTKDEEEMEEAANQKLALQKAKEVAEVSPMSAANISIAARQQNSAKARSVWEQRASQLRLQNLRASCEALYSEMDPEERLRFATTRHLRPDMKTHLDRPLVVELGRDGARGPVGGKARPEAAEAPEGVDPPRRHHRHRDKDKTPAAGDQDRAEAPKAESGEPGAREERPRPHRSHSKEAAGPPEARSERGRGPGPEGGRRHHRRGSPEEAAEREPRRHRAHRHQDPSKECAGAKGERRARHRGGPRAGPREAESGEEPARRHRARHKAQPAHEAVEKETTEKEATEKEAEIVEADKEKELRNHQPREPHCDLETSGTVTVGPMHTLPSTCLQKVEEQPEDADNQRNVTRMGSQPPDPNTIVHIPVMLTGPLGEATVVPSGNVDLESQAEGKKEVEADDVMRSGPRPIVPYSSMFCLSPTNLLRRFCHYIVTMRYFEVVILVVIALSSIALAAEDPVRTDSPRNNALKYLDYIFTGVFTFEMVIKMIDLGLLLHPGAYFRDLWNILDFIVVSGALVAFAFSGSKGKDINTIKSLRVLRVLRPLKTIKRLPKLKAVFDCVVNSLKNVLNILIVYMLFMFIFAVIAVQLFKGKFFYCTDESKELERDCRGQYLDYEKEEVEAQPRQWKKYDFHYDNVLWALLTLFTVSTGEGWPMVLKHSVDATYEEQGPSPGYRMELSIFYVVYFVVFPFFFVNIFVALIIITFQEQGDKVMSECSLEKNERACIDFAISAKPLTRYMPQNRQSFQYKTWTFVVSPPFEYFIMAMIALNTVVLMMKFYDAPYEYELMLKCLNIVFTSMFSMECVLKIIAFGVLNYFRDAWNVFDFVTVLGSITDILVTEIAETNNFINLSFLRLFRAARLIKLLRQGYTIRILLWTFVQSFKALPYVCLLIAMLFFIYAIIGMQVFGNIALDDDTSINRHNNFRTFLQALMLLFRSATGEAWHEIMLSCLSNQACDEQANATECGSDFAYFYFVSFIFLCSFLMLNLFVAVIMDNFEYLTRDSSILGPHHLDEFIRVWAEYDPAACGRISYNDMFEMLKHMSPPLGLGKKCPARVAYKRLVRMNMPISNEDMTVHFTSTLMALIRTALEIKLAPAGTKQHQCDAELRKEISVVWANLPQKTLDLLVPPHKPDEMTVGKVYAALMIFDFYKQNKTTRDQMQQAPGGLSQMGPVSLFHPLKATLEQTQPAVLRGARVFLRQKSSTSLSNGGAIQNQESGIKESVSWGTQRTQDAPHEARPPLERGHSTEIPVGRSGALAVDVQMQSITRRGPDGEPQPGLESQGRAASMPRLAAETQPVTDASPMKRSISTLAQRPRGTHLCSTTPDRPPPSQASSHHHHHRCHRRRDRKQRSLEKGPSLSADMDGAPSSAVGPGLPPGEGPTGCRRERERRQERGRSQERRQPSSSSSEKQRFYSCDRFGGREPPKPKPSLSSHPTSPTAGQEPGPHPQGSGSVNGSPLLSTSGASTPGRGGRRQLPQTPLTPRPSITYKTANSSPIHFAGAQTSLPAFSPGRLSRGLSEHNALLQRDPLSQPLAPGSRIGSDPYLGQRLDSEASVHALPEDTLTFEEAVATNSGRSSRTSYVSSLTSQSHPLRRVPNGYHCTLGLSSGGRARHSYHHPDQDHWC

The compounds below were run against Voltage-dependent N-type calcium channel subunit alpha-1B (Homo sapiens) (UniProt Q00975) (assay: disruptors of CaV2.2 binding to Mint1 – biochemical, HTRF (AID 2073)). Details: HTRF protein-protein interaction, Mint1-CaV2.2; at 20 µM; hits give high values.

inhibition, inconclusive:
CCOC(=O)N1CCN(C(=O)Nc2cccc(Cl)c2)CC1 66.3%, Cc1noc(C)c1COc1cccc(C(=O)OCC(=O)NC(=O)c2ccc(OC(F)F)cc2)c1 81.6%, CCOc1ccc(NC(=O)COc2nsnc2N2CCOCC2)cc1 68.1%, O=c1cc(N2CCc3ccccc3C2)[nH]c(=O)n1-c1ccc(Cl)cc1 54.1%, CCOC(=O)CSc1nc2ccccc2c(=O)n1CCCCCC(=O)NCc1ccco1 64.1%, COc1ccc(C(=O)NCCC(C)C)cc1S(=O)(=O)N1CCOCC1 50.3%, CC(=O)CC1(OC(C)=O)C(=O)N(C)c2ccccc21 (configuration not stated) 54.9%, COC(=O)c1cc(-c2cc(OC)ccc2OC)nc2c1c(=O)n(C)c(=O)n2Cc1ccccc1 73.6%, Cc1ccc2c(c1)N(CC(=O)NC1CCCCCC1)C(=O)c1cccnc1O2 68.1%, CC(=O)Nc1ccc(Sc2ncccc2C(=O)Nc2cc(Cl)cc(Cl)c2)cn1 76%, CCCN1C(=O)C(NC(C)=O)c2cc(OC)ccc21 (configuration not stated) 58.1%, Cc1nn(Cc2ccc(C(=O)N3CCOCC3)o2)c(C)c1Br 51.3%, O=C(NNC(=O)c1ccc(NC(=O)c2ccccc2)cc1)c1ccccc1 64.6%, CC(C)(C)NC(=O)C1N(c2cccnc2)C(=O)C2C(C(=O)Nc3ccccc3)C3(C)C=CC21O3 (configuration not stated) 80.3%, O=C(N/N=C/c1ccccn1)NC12CC3CC(CC(C3)C1)C2 51.3%, O=C(NCCCO)c1cc2c([nH]c3ccccc32)c(-c2ccccc2)n1 64.4%, COc1ccccc1-c1nn2c(-c3ccco3)nnc2s1 84.5%, O=C1CNC(=O)c2c(nc3n2CCC3)N1 52.6%, CN(C(=O)COC(=O)c1cc(-c2ccc(Cl)s2)nc2ccccc12)C1CCS(=O)(=O)C1 (configuration not stated) 54.6%, Cc1ccc(Cn2cc(S(=O)(=O)c3ccc(Cl)cc3)c(=O)c3cc(F)ccc32)cc1 67.9%, COc1ccc(-c2cc(N3C(=O)Nc4ccccc4N3O)n[nH]2)cc1 90.7%, COCCNC(=S)N(CCc1c(C)[nH]c2ccccc12)Cc1ccco1 65.9%, O=C(NCC1COc2ccccc2O1)C1(c2ccccc2)CCCC1 (configuration not stated) 73.8%, CC(C)CC(=O)NC(c1cccs1)c1ccc2cccnc2c1O (configuration not stated) 96.6%, COc1cccc(NC(=O)C2CCN(S(=O)(=O)c3ccc4c(c3)CC(C)N4C(C)=O)CC2)c1 (configuration not stated) 58.2%, O=C(CSc1nc2ccc(Cl)cc2[nH]1)N1CCN(C(=O)c2ccco2)CC1 70.6%, C=CCNC(=S)Nc1cccc2[nH]ncc12 75.6%, COc1cc(-c2c(C#N)c(N)nc3c2c(C)nn3-c2ccc(C)c(C)c2)cc(OC)c1OC 62.8%, O=C1CCCCC1c1cccc2ccccc12 (configuration not stated) 50.3%, O=C(Nc1nc(-c2cccs2)cs1)c1ccco1 54.7%, Nc1ccc2nc(C(F)(F)F)[nH]c2c1 72.5%, CCc1cc(C(=O)c2ccc(C)cc2)c(NC(=O)CCl)s1 59.3%, FC(F)(F)c1cnc(Oc2ccc(-c3nnco3)cc2)c(Cl)c1 63.6%, O=C(CN1C(=O)NC2(CCSC2)C1=O)N1CCN(c2ccc(F)cc2)CC1 (configuration not stated) 76.1%, CCOC(=O)N1CCC(Nc2c(-c3ccccc3)c(=O)c2=O)CC1 52.3%, CS(=O)(=O)N1N=C(c2cccs2)CC1c1ccco1 (configuration not stated) 85.4%, COC(=O)CNC(=O)CN1C(=O)N(c2ccccc2)C(N(O)C(=O)Nc2ccccc2)C1(C)C (configuration not stated) 55.6%, COc1cc(C2C(C#N)=C(N)Oc3cc4c(cc32)OCO4)cc(OC)c1OC (configuration not stated) 71.8%, CCc1cc(=O)oc2c(C)c(O)c(CN3CCCCC3)cc12 62.1%, Cc1ccc2cccc(S(=O)(=O)Nc3c(C)n(C)n(-c4ccccc4)c3=O)c2n1 66.5%, Nc1ncc(-c2cc3ccccc3oc2=O)s1 55.6%, c1ccc(-n2nnnc2CN2CCOCC2)cc1 68.6%, COc1ccc2nc(N3CCCCC3)c(/C=C3\SC(=S)NC3=O)cc2c1 61.7%, O=C(c1cccc(C(F)(F)F)c1)N1CCOc2ccccc21 62.9%, O=C(O)CCN1C(=O)C2C3c4ccccc4C(c4ccccc43)[C@@H]2C1=O (some centres not stated) 87.9%, CCOc1cc(-c2c(C)c(CC)nc(N)c2C#N)ccc1O 84.6%, O=C(C/C(=N/O)c1ccccc1O)C(F)F 51%

inhibition, inactive:
Cc1ccc(CSc2nnc(SCC(=O)N/N=C/C=C/c3ccco3)s2)cc1 35.3%, CC(C)CNC(=O)c1ccccc1Oc1ccccc1 3.1%, CC(/C=N/NC(=O)c1cc(-c2ccc(Cl)cc2)nc2ccccc12)=C\c1ccco1 37.8%, CCOc1ccc(Oc2c(C)oc3cc(O)ccc3c2=O)cc1 15.1%, CCn1cc(C(=O)Nc2ccc(F)c(F)c2)cn1 8.5%, CCOC(=O)C1CCCN(C(=O)CC(C)c2ccccc2)C1 (configuration not stated) -3.1%, Cc1ccc(-n2nnnc2SCc2nc3sc(C)c(C)c3c(=O)[nH]2)cc1 12%, O=C(CSc1nc2c(c(=O)n1-c1ccc(Cl)cc1)SCC2)NCC1CCCO1 (configuration not stated) -0.5%, COc1cc(/C=C2\SC(=Nc3ccccc3)N(CCc3c[nH]c4ccccc34)C2=O)ccc1OC(C)C(=O)O (configuration not stated) 6.2%, COc1cc(C2CC(=O)Nc3n[nH]c(-c4ccccc4)c32)cc(OC)c1OC (configuration not stated) 8.3%, COc1cccc(/C=C(\CC(=O)O)c2nc3ccccc3s2)c1 -2.6%, COc1ccc(CCNCC(=O)Nc2c(C)cc(C)cc2C)cc1OC -6.8%, Cc1ncc(CO)c(/C=N/NC(=S)Nc2ccc(Cl)c(Cl)c2)c1O 50.4%, O=C(/C=C/c1cccs1)Nc1nc(-c2ccccc2)cs1 10%, CCOC(=O)N1CCC(C(=O)NNC(=O)c2ccc(Cl)cc2Cl)CC1 6.9%, O=C(N/N=C/c1ccoc1)c1cc(O)cc(O)c1 18.3%, O=S(=O)(Nc1ccncc1)c1cc(Cl)c(Cl)cc1Cl 12.2%, COc1ccc(CCNC(=O)C(CC(C)C)NC(N)=O)cc1 (configuration not stated) 4.9%, Cc1ccc(NC(=O)c2ccccc2)cc1 -4.2%

inhibition, active:
N/C(Cc1cccc2ccccc12)=N\OC(=O)c1ccc(Br)o1 56.5%
